{"source": "patent US10842892B2", "about": "“Methods and apparatus for synthesizing imaging agents, and intermediates thereof” (Lantheus Medical Imaging, Inc., priority 2010, dated 2020)", "key": {"myocardial blood flow": {"test_system": "myocardial blood flow", "assay": "streamlined quantification of absolute myocardial blood flow at rest and stress", "assay_type": "in vivo, human", "settings": "for SMBF: peak adenosine"}, "myocardium": {"test_system": "myocardium", "assay": "HD PET versus standard reconstruction of imaging agent 1 perfusion images", "assay_type": "in vivo, human"}}, "note": "No dose or concentration is given here for some results.", "data": [{"smiles": "CC(C)(C)n1ncc(OCc2ccc(COCC[18F])cc2)c(Cl)c1=O", "note": "[imaging agent 1, 2-t-butyl-4-chloro-5-[4-(2-(^18F)fluoroethoxymethyl)-benzyloxy]-2H-pyridazin-3-1]", "values": [{"measurement": "CFR", "setting": "myocardial blood flow; CAD Reversible defect", "result": "1.71 ± 0.41"}, {"measurement": "RMBF", "setting": "myocardial blood flow; CAD Reversible defect", "result": "0.69 ± 0.22"}, {"measurement": "CFR", "setting": "myocardial blood flow; Normal territory, LAD", "result": "3.25 ± 0.25"}, {"measurement": "RMBF", "setting": "myocardial blood flow; Normal territory, LAD", "result": "0.76 ± 0.15"}, {"measurement": "SMBF", "setting": "myocardial blood flow; Normal territory, LAD", "result": "2.48 ± 0.50"}, {"measurement": "CFR", "setting": "myocardial blood flow; Normal territory, LCX", "result": "3.60 ± 0.86"}, {"measurement": "RMBF", "setting": "myocardial blood flow; Normal territory, LCX", "result": "0.74 ± 0.10"}, {"measurement": "SMBF", "setting": "myocardial blood flow; Normal territory, LCX", "result": "2.66 ± 0.62"}, {"measurement": "CFR", "setting": "myocardial blood flow; Normal territory, RCA", "result": "3.72 ± 0.49"}, {"measurement": "RMBF", "setting": "myocardial blood flow; Normal territory, RCA", "result": "0.75 ± 0.17"}, {"measurement": "SMBF", "setting": "myocardial blood flow; Normal territory, RCA", "result": "2.78 ± 0.43"}, {"measurement": "average contrast between myocardial maximum and the 22 defects", "setting": "myocardium; HD PET", "result": "4.0±1.7"}, {"measurement": "average wall thickness, basal", "setting": "myocardium; HD PET", "result": "14.7±2.8", "unit": "mm"}, {"measurement": "average contrast between myocardial maximum and the 22 defects", "setting": "myocardium; SR", "result": "3.2±1.2"}]}]}
